Paper PMC5882894

Protein sequences, listed by entry. Tags and fused reporters are not part of them. Lines headed by an entry give the natural chain unless they say otherwise; changes in a name come on top.
UniProt P11275: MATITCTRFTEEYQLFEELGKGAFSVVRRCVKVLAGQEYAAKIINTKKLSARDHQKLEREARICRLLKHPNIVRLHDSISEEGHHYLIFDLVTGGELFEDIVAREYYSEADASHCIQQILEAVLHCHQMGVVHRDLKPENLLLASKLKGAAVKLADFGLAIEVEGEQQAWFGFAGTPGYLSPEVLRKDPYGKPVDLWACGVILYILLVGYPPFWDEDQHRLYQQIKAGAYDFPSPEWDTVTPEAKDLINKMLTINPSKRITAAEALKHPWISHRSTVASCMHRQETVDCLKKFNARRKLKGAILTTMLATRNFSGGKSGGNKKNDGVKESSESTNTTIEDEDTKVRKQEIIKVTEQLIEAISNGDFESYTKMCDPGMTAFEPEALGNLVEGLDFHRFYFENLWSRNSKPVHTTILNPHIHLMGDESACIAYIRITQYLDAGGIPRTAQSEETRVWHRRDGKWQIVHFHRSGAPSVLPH
UniProt P08413: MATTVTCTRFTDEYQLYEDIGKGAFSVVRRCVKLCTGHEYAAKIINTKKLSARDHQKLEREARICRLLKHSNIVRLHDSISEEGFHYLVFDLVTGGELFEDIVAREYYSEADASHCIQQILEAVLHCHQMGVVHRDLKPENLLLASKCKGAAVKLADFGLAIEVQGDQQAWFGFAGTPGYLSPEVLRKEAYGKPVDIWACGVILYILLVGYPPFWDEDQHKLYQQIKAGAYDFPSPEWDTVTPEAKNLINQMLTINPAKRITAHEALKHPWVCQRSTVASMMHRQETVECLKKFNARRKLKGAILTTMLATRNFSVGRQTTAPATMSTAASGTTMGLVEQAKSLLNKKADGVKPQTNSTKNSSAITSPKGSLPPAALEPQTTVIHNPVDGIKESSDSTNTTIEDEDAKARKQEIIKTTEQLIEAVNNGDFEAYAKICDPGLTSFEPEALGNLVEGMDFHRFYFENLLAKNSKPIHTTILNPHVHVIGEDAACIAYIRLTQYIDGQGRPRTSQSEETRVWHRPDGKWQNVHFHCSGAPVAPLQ

Biological target: mCherry-labelled CaMKIIα hub domain (UniProt P11275)
Assay: FRET or BRET; live Cos-7 cells co-transfected with mCherry and GFP expression vectors (4:1), imaged 24 h later; corrected FRET (FRETC) divided by donor intensity; cytoplasm and nucleus

full-length GFP-CaMKIIβ (Cos-7) (from UniProt P08413 1-542) (enzyme)
binding: binds

Results are given in words; binding and its absence hold for the method and conditions named. In cells and extracts the contact can be indirect. Binding calls can cover weak binding; strength is not graded here.
